Results are given in words; binding and its absence hold for the method and conditions named. In cells and extracts the contact can be indirect. A yes stands for co-enrichment or nearness to the bait. Other partners may have been found. For some of these results: No binding means not detected with the bait. For some of these results: Where a sequence is shown, tags or fusion partners need not be part of it.
B1: Rpc128 (protein, UniProt P22276 1-1149)
chain: MVAATKRRKTHIHKHVKDEAFDDLLKPVYKGKKLTDEINTAQDKWHLLPAFLKVKGLVKQHLDSFNYFVDTDLKKIIKANQLILSDVDPEFYLKYVDIRVGKKSSSSTKDYLTPPHECRLRDMTYSAPIYVDIEYTRGRNIIMHKDVEIGRMPIMLRSNKCILYDADESKMAKLNECPLDPGGYFIVNGTEKVILVQEQLSKNRIIVEADEKKGIVQASVTSSTHERKSKTYVITKNGKIYLKHNSIAEEIPIAIVLKACGILSDLEIMQLVCGNDSSYQDIFAVNLEESSKLDIYTQQQALEYIGAKVKTMRRQKLTILQEGIEAIATTVIAHLTVEALDFREKALYIAMMTRRVVMAMYNPKMIDDRDYVGNKRLELAGQLISLLFEDLFKKFNNDFKLSIDKVLKKPNRAMEYDALLSINVHSNNITSGLNRAISTGNWSLKRFKMERAGVTHVLSRLSYISALGMMTRISSQFEKSRKVSGPRALQPSQFGMLCTADTPEGEACGLVKNLALMTHITTDDEEEPIKKLCYVLGVEDITLIDSASLHLNYGVYLNGTLIGSIRFPTKFVTQFRHLRRTGKVSEFISIYSNSHQMAVHIATDGGRICRPLIIVSDGQSRVKDIHLRKLLDGELDFDDFLKLGLVEYLDVNEENDSYIALYEKDIVPSMTHLEIEPFTILGAVAGLIPYPHHNQSPRNTYQCAMGKQAIGAIAYNQFKRIDTLLYLMTYPQQPMVKTKTIELIDYDKLPAGQNATVAVMSYSGYDIEDALVLNKSSIDRGFGRCETRRKTTTVLKRYANHTQDIIGGMRVDENGDPIWQHQSLGPDGLGEVGMKVQSGQIYINKSVPTNSADAPNPNNVNVQTQYREAPVIYRGPEPSHIDQVMMSVSDNDQALIKVLLRQNRRPELGDKFSSRHGQKGVCGIIVKQEDMPFNDQGIVPDIIMNPHGFPSRMTVGKMIELISGKAGVLNGTLEYGTCFGGSKLEDMSKILVDQGFNYSGKDMLYSGITGECLQAYIFFGPIYYQKLKHMVLDKMHARARGPRAVLTRQPTEGRSRDGGLRLGEMERDCVIAYGASQLLLERLMISSDAFEVDVCDKCGLMGYSGWCTTCKSAENIIKMTIPYAAKLLFQELLSMNIAPRLRLEDIFQQ
B2: Rpc53 (protein, UniProt P25441 1-422)
chain: MSSNKGNGRLPSLKDSSSNGGGSAKPSLKFKPKAVARKSKEEREAAASKVKLEEESKRGNDKKHFNNKNKRVTGAGGQQRRMAKYLNNTHVISSGPLAAGNFVSEKGDLRRGFIKSEGSGSSLVQKGLETIDNGAESSENEAEDDDNEGVASKSKKKFNMGKEFEARNLIEDEDDGESEKSSDVDMDDEEWRSKRIEQLFPVRPVRVRHEDVETVKREIQEALSEKPTREPTPSVKTEPVGTGLQSYLEERERQVNEKLADLGLEKEFQSVDGKEAAAELELLNADHQHILRKLKKMNNKPERFMVFQLPTRLPAFERPAVKEEKEDMETQASDPSKKKKNIKKKDTKDALSTRELAGKVGSIRVHKSGKLSVKIGNVVMDIGKGAETTFLQDVIALSIADDASSAELLGRVDGKIVVTPQI
B3: Rpc25 (protein, UniProt P35718 1-212)
chain: MFILSKIADLVRIPPDQFHRDTISAITHQLNNKFANKIIPNVGLCITIYDLLTVEEGQLKPGDGSSYINVTFRAVVFKPFLGEIVTGWISKCTAEGIKVSLLGIFDDIFIPQNMLFEGCYYTPEESAWIWPMDEETKLYFDVNEKIRFRIEREVFVDVKPKSPKERELEERAQLENEIEGKNEETPQNEKPPAYALLGSCQTDGMGLVSWWE

Assays:
[1] = target: Sen1-TAP (wild-type Sen1 fused to a TAP tag) (S. cerevisiae) (UniProt Q00416); test: affinity purification with mass spectrometry; Sen1-TAP or Sen1-3–TAP as bait; yeast lysates; untagged control
[2] = target: T1, TAP-NTD (isolated N-terminal domain of Sen1, TAP-tagged, expressed from pGAL1) (S. cerevisiae) (UniProt Q00416); test: affinity purification with mass spectrometry; TAP-tagged Sen1 versions (full length, ΔNTD, NTD) overexpressed from pGAL1 as baits; yeast lysates in 10 mM sodium phosphate pH 7.5, 200 mM sodium acetate, 0.25% NP-40, treated with RNase A; IgG Sepharose; elution by TEV cleavage; untagged control
T1 sequence: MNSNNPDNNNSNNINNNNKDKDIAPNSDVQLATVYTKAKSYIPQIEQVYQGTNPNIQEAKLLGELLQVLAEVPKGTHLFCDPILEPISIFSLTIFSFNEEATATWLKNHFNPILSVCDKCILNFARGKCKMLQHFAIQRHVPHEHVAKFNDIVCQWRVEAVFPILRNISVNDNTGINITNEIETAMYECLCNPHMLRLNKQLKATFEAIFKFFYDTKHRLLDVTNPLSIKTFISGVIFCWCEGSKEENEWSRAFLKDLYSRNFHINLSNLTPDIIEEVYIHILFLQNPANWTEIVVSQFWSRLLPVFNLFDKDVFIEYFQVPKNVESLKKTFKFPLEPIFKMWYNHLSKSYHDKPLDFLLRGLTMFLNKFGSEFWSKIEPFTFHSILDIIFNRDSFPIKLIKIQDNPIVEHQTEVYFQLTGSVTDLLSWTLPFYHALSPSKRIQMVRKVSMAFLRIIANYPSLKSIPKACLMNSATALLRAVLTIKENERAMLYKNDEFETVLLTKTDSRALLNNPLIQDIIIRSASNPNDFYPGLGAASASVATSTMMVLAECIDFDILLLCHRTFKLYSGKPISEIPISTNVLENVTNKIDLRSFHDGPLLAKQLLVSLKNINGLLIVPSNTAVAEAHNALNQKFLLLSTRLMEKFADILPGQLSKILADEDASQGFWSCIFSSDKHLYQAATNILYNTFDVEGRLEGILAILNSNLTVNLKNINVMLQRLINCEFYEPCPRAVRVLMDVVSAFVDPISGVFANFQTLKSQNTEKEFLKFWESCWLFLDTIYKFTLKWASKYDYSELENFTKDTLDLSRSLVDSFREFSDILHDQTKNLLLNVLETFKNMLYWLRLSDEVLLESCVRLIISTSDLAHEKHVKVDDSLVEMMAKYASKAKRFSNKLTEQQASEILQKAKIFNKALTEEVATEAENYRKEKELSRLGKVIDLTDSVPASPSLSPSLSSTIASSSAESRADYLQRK

[3] = target: TAP-Sen1 (full-length Sen1 fused to a tandem affinity purification tag, expressed from pGAL1) (S. cerevisiae) (UniProt Q00416); test: as above
[4] = target: T2, TAP-Sen1ΔNTD (Sen1 lacking the N-terminal domain, TAP-tagged, expressed from pGAL1) (S. cerevisiae) (UniProt Q00416); test: as above
T2 sequence: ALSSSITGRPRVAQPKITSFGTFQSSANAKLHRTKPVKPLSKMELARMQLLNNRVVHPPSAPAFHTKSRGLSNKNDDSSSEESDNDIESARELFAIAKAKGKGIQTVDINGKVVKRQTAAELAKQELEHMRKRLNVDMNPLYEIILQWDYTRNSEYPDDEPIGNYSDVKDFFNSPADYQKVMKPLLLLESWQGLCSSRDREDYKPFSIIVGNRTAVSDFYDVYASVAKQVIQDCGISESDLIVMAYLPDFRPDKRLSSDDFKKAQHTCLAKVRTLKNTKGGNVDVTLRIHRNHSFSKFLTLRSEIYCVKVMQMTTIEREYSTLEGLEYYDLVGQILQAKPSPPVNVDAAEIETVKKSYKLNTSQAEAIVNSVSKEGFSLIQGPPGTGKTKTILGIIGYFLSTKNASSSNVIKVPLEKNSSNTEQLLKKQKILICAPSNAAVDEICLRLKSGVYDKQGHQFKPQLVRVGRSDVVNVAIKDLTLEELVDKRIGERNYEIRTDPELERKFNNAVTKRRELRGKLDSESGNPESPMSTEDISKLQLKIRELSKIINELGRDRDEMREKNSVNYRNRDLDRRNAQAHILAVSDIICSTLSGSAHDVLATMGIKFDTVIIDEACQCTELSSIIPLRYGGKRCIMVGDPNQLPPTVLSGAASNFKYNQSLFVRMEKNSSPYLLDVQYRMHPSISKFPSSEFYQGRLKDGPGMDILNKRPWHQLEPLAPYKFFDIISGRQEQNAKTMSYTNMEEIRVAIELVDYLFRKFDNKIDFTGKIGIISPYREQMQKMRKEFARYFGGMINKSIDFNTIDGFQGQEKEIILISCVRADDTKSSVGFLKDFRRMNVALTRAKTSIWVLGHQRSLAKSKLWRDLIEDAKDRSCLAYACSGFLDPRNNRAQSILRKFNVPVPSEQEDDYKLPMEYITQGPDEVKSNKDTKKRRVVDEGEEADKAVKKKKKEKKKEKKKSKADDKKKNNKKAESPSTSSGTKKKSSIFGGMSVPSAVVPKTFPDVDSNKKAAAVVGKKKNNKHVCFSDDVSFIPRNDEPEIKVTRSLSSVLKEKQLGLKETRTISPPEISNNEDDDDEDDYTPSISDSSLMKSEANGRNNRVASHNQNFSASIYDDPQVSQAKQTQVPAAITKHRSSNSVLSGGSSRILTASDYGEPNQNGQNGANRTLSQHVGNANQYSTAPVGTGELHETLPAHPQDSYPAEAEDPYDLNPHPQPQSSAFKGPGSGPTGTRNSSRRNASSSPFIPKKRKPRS

Row | Binder | binding [1] | binding [2] | binding [3] | binding [4]
1 | B1 | binds | binds | binds | no binding
2 | B2 | binds | binds | binds | –
3 | B3 | binds | – | binds | no binding
